Source: PubChem BioAssay AID296 (DTP/NCI, 2004)
The list shows only some results of the screen, not a fair sample: it gathers tests that were run many times, whatever their T/C, doses with no T/C, and many T/C values between a quarter and a half above the control. Further doses and runs are listed elsewhere. T/C: endpoint of the treated group in % of that of the vehicle group. Schedules are NCI's codes, taken here to give the interval after Q, in days (D) or hours (H), and the number of doses after X. Some T/C values carry the count of animals alive at the toxicity check (mostly the fifth day); without a count, all were alive then. Some doses have a count of surviving animals in place of a T/C: the source files T/C as zero there, which appears to mark a toxic dose or a test without result, not a measured value. Survivors were counted at the toxicity check, usually on the fifth day, unless a day is given; later deaths do not show. Some entries hold several experiments; their values stand side by side, smallest first.

Tested on: MX-1 breast xenograft, nude mice, tumor weight T/C
Experiment: NCI In Vivo Anticancer Drug Screen. Data for tumor model Human Mammary Carcinoma MX-1 Xenograft (intrarenal inoculation) in NU/NU Swiss (nude) mice
Settings: T/C endpoint: mean tumor weight change, higher T/C = larger tumour; for T/C: evaluated on day 11
Procedure: The antitumor activity of compounds was measured in mice bearing transplantable tumors. Survival or tumor size were measured and the results are expressed as the measurement made in the treated group (T) divided by the measurement made in the vehicle treated control group (C). The tumor model used in this assay is Human Mammary Carcinoma MX-1 Xenograft (intrarenal inoculation) in NU/NU Swiss (nude) mice

[1] = dose: 200.0 mg/kg/injection, schedule: Q04DX003 (sc), vehicle: Klucel (hydroxypropylcellulose) (HPC)
[2] = dose: 200.0 mg/kg/injection, schedule: Q01DX010 (sc), vehicle: water

## N=[N+]=CC(=O)OCC(N)C(=O)O (configuration not stated)
dose: 25.0 mg/kg/injection, schedule: Q01DX010 (sc), vehicle: saline
  survivor count: 0 of 3 on day 11

## C/C=C/C=C/c1cc2cc3c(c(O)c2c(=O)[nH]1)C1(CC3)C(O)=c2c(=O)c3c(=O)cc(OC)c(=O)c=3c(=O)c2=C1O (configuration not stated)
dose: 2.0 mg/kg/injection, schedule: Q01DX010 (sc), vehicle: DMSO
  T/C: 129 % of control [2 of 2 alive on day 11]
dose: 4.0 mg/kg/injection, schedule: Q01DX010 (sc), vehicle: DMSO
  T/C: 136 % of control

## C=C1C(=O)C2=CC1CCC(=O)C1(C)CCC(OC(C)=O)C(C)(C)C1CC2O (configuration not stated)
dose: 240.0 mg/kg/injection, schedule: Q04DX003 (sc), vehicle: Klucel (hydroxypropylcellulose) (HPC)
  survivor count: 0 of 6 on day 11

## NC(=O)SCC(N)C(=O)O (configuration not stated)
dose: 1350.0 mg/kg/injection, schedule: Q04DX003 (sc), vehicle: suspension in saline
  survivor count: 0 of 6 on day 11
dose: 1800.0 mg/kg/injection, schedule: Q04DX003 (sc), vehicle: suspension in saline
  survivor count: 0 of 6 on day 11

## CN(C)CCN1C(=O)c2cccc3cc([N+](=O)[O-])cc(c23)C1=O
dose: 72.0 mg/kg/injection, schedule: Q04DX003 (sc), vehicle: saline with Tween-80
  survivor count: 3 of 6 on day 11

## Cn1cnc([N+](=O)[O-])c1Sc1ncn[nH]1
dose: 800.0 mg/kg/injection, schedule: Q04DX003 (sc), vehicle: suspension in saline
  survivor count: 2 of 6 on day 11

## ClCc1ccc2ccccc2n1
dose: 600.0 mg/kg/injection, schedule: Q04DX003 (sc), vehicle: saline with Tween-80
  T/C: 142 % of control [4 of 6 alive on day 11]

## CN(C)N=Nc1cccc(C(N)=O)c1
[1]
  survivor count: 0 of 6 on day 11, 1 of 6 on day 11, 2 of 6 on day 11
dose: 400.0 mg/kg/injection, schedule: Q04DX003 (sc), vehicle: Klucel (hydroxypropylcellulose) (HPC)
  survivor count: 0 of 6 on day 11

## C1CN2CN3CCN(CN1C3)C2
dose: 400.0 mg/kg/injection, schedule: Q01DX010 (sc), vehicle: saline
  survivor count: 0 of 3 on day 11
dose: 800.0 mg/kg/injection, schedule: Q01DX010 (sc), vehicle: saline
  survivor count: 0 of 3 on day 11

## O=C(O)c1c2c(nc3ccccc13)Cc1ccccc1-2
[2]
  T/C: 144 % of control [2 of 3 alive on day 11]
  survivor count: 1 of 2 on day 11
dose: 400.0 mg/kg/injection, schedule: Q01DX010 (sc), vehicle: water
  survivor count: 0 of 2 on day 11 and 1 of 3 on day 11

## CC(=O)c1cccc(NC2C(N)C(NC(=O)N(C)C)(C(C)O)C(C)(O)C2(O)COC(=O)c2c(C)cccc2O)c1 (configuration not stated)
dose: 50.0 mg/kg/injection, schedule: Q04DX003 (ip), vehicle: suspension in saline
  survivor count: 1 of 6 on day 11

## COc1cc([C@@H]2c3cc4c(cc3[C@@H](OC3OC5COC(C)OC5C(O)C3O)[C@H]3COC(=O)[C@H]23)OCO4)cc(OC)c1O (some centres not stated)
dose: 32.0 mg/kg/injection, schedule: Q01DX010 (sc), vehicle: saline
  survivor count: 0 of 3 on day 11
dose: 64.0 mg/kg/injection, schedule: Q01DX010 (sc), vehicle: saline
  survivor count: 0 of 3 on day 11

## O=C(O)/C=C/C(=O)Nc1ccc(Cl)c(Cl)c1
[1]
  T/C: 127 % of control

## C1CN2CCC1CC2
dose: 18.75 mg/kg/injection, schedule: Q04DX003 (sc), vehicle: saline with Tween-80
  survivor count: 0 of 6 on day 11
dose: 37.5 mg/kg/injection, schedule: Q04DX003 (sc), vehicle: saline with Tween-80
  survivor count: 0 of 6 on day 11

## CCN(C)N=Nc1ccc(C(N)=O)cc1
dose: 600.0 mg/kg/injection, schedule: Q04DX003 (sc), vehicle: Klucel (hydroxypropylcellulose) (HPC)
  survivor count: 0 of 6 on day 11
dose: 1200.0 mg/kg/injection, schedule: Q04DX003 (sc), vehicle: Klucel (hydroxypropylcellulose) (HPC)
  survivor count: 0 of 6 on day 11

## Cc1c2ccccc2cc2cccc[n+]12
dose: 60.0 mg/kg/injection, schedule: Q04DX003 (sc), vehicle: saline
  survivor count: 0 of 6 on day 11

## COc1cc2cc3cc4cc(OC)c(OC)cc4c(C)[n+]3cc2cc1OC (tested in a mixture with another compound)
dose: 1200.0 mg/kg/injection, schedule: Q04DX003 (sc), vehicle: suspension in saline
  survivor count: 3 of 6 on day 11
dose: 2400.0 mg/kg/injection, schedule: Q04DX003 (sc), vehicle: suspension in saline
  survivor count: 2 of 6 on day 11
